# Reference: the supplement of paper PMC8728848
# This is one part of the list.
# B1: AT1G77380(17) (Arabidopsis thaliana), Q39134 (protein)
# chain: MVQNHQTVLAVDMPQTGGSKYLDDDGKNKRTGSVWTASAHIITAVIGSGVLSLAWATAQLGWLAGPVVMLLFSAVTYFTSSLLAACYRSGDPISGKRNYTYMDAVRSNLGGVKVTLCGIVQYLNIFGVAIGYTIASAISMMAIKRSNCFHKSGGKDPCHMNSNPYMIAFGLVQILFSQIPDFDQLWWLSILAAVMSFTYSSAGLALGIAQVVVNGKVKGSLTGISIGAVTETQKIWRTFQALGDIAFAYSYSIILIEIQDTVKSPPSEEKTMKKATLVSVSVTTMFYMLCGCMGYAAFGDLSPGNLLTGFGFYNPYWLLDIANAAIVIHLIGAYQVYCQPLFAFIEKQASIQFPDSEFIAKDIKIPIPGFKPLRLNVFRLIWRTVFVIITTVISMLLPFFNDVVGLLGALGFWPLTVYFPVEMYIAQKKIPRWSTRWVCLQVFSLGCLVVSIAAAAGSIAGVLLDLKSYKPFRSEY
# Columns and labels:
# Assay in all cases: glycan array binding signal (z-score within array); higher = stronger binding
# Details in all cases: glycan notation: IUPAC condensed, linker removed
# [1] = target: Neu5Ac(a2-3)Gal(b1-3)GlcNAc6S
# How it was run: (§1)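 The binding signal is a Z-score computed within each array and averaged over linkers. Arrays of the same protein sequence at different concentrations or buffers were also averaged together. Data originate from 3228 arrays in the Consortium for Functional Glycomics database, kept only where the protein sequence was available.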
# [2] = target: Neu5Ac(a2-3)Gal(b1-3)[Fuc(a1-4)]GlcNAc
# How it was run: as §1
# [3] = target: Neu5Ac(a2-3)Gal(b1-3)[Fuc(a1-4)]GlcNAc(b1-3)Gal(b1-3)[Fuc(a1-4)]GlcNAc
# How it was run: as §1
# [4] = target: Neu5Ac(a2-3)Gal(b1-3)[Fuc(a1-4)]GlcNAc(b1-3)Gal(b1-4)[Fuc(a1-3)]GlcNAc
# How it was run: as §1
# [5] = target: Neu5Ac(a2-3)Gal(b1-3)[GlcNAc(b1-6)]GalNAc
# How it was run: as §1
# [6] = target: Neu5Ac(a2-3)Gal(b1-3)[Neu5Ac(a2-6)]GalNAc
# How it was run: as §1
# [7] = target: Neu5Ac(a2-3)Gal(b1-3)[Neu5Ac(a2-6)]GlcNAc(b1-3)[Fuc(a1-3)[Gal(b1-4)]GlcNAc(b1-6)]Gal(b1-4)Glc
# How it was run: as §1
# [8] = target: Neu5Ac(a2-3)Gal(b1-3)]Neu5Ac(a2-3)Gal(b1-4)]GlcNAc
# How it was run: as §1
# [9] = target: Neu5Ac(a2-3)Gal(b1-4)Glc
# How it was run: as §1
# [10] = target: Neu5Ac(a2-3)Gal(b1-4)GlcNAc
# How it was run: as §1
# [11] = target: Neu5Ac(a2-3)Gal(b1-4)GlcNAc(b1-2)Man
# How it was run: as §1
# [12] = target: Neu5Ac(a2-3)Gal(b1-4)GlcNAc(b1-2)Man(a1-3)[GlcNAc(b1-4)][Neu5Ac(a2-3)Gal(b1-4)GlcNAc(b1-2)Man(a1-6)]Man(b1-4)GlcNAc(b1-4)GlcNAc
# How it was run: as §1
# [13] = target: Neu5Ac(a2-3)Gal(b1-4)GlcNAc(b1-2)Man(a1-3)[Neu5Ac(a2-3)Gal(b1-4)GlcNAc(b1-2)Man(a1-6)]Man(b1-4)GlcNAc(b1-4)GlcNAc
# How it was run: as §1
# [14] = target: Neu5Ac(a2-3)Gal(b1-4)GlcNAc(b1-2)Man(a1-3)[Neu5Ac(a2-3)Gal(b1-4)GlcNAc(b1-2)Man(a1-6)]Man(b1-4)GlcNAc(b1-4)[Fuc(a1-6)]GlcNAc
# How it was run: as §1
# [15] = target: Neu5Ac(a2-3)Gal(b1-4)GlcNAc(b1-2)Man(a1-3)[Neu5Ac(a2-6)Gal(b1-4)GlcNAc(b1-2)Man(a1-6)]Man(b1-4)GlcNAc(b1-4)GlcNAc
# How it was run: as §1
# [16] = target: Neu5Ac(a2-3)Gal(b1-4)GlcNAc(b1-2)[Neu5Ac(a2-3)Gal(b1-4)GlcNAc(b1-4)]Man(a1-3)[GlcNAc(b1-4)][Neu5Ac(a2-3)Gal(b1-4)GlcNAc(b1-2)[Neu5Ac(a2-3)Gal(b1-4)GlcNAc(b1-6)]Man(a1-6)]Man(b1-4)GlcNAc(b1-4)GlcNAc
# How it was run: as §1
# [17] = target: Neu5Ac(a2-3)Gal(b1-4)GlcNAc(b1-2)[Neu5Ac(a2-3)Gal(b1-4)GlcNAc(b1-4)]Man(a1-3)[GlcNAc(b1-4)][Neu5Ac(a2-3)Gal(b1-4)GlcNAc(b1-4)Man(a1-6)]Man(b1-4)GlcNAc(b1-4)GlcNAc
# How it was run: as §1
# [18] = target: Neu5Ac(a2-3)Gal(b1-4)GlcNAc(b1-2)[Neu5Ac(a2-3)Gal(b1-4)GlcNAc(b1-6)]Man(a1-6)[Neu5Ac(a2-3)Gal(b1-4)GlcNAc(b1-2)Man(a1-3)]Man(b1-4)GlcNAc(b1-4)GlcNAc
# How it was run: as §1
# [19] = target: Neu5Ac(a2-3)Gal(b1-4)GlcNAc(b1-2)[Neu5Ac(a2-3)Gal(b1-4)GlcNAc(b1-6)]Man(a1-6)[Neu5Ac(a2-3)Gal(b1-4)GlcNAc(b1-2)Man(a1-3)][GlcNAc(b1-4)]Man(b1-4)GlcNAc(b1-4)GlcNAc
# How it was run: as §1
# [20] = target: Neu5Ac(a2-3)Gal(b1-4)GlcNAc(b1-3)Gal
# How it was run: as §1
# [21] = target: Neu5Ac(a2-3)Gal(b1-4)GlcNAc(b1-3)Gal(b1-3)GlcNAc
# How it was run: as §1
# [22] = target: Neu5Ac(a2-3)Gal(b1-4)GlcNAc(b1-3)Gal(b1-4)GlcNAc
# How it was run: as §1
# [23] = target: Neu5Ac(a2-3)Gal(b1-4)GlcNAc(b1-3)Gal(b1-4)GlcNAc(b1-2)Man(a1-3)[Neu5Ac(a2-3)Gal(b1-4)GlcNAc(b1-3)Gal(b1-4)GlcNAc(b1-2)Man(a1-6)]Man(b1-4)GlcNAc(b1-4)GlcNAc
# How it was run: as §1
# [24] = target: Neu5Ac(a2-3)Gal(b1-4)GlcNAc(b1-3)Gal(b1-4)GlcNAc(b1-3)Gal(b1-4)GlcNAc
# How it was run: as §1
# [25] = target: Neu5Ac(a2-3)Gal(b1-4)GlcNAc(b1-3)Gal(b1-4)GlcNAc(b1-3)Gal(b1-4)GlcNAc(b1-2)Man(a1-3)[Neu5Ac(a2-3)Gal(b1-4)GlcNAc(b1-3)Gal(b1-4)GlcNAc(b1-3)Gal(b1-4)GlcNAc(b1-2)Man(a1-6)]GalNAc
# How it was run: as §1
# [26] = target: Neu5Ac(a2-3)Gal(b1-4)GlcNAc(b1-3)Gal(b1-4)GlcNAc(b1-3)GalNAc
# How it was run: as §1
# [27] = target: Neu5Ac(a2-3)Gal(b1-4)GlcNAc(b1-3)Gal(b1-4)GlcNAc(b1-3)[Neu5Ac(a2-3)Gal(b1-4)GlcNAc(b1-3)Gal(b1-4)GlcNAc(b1-6)]GalNAc
# How it was run: as §1
# [28] = target: Neu5Ac(a2-3)Gal(b1-4)GlcNAc(b1-3)Gal(b1-4)GlcNAc(b1-6)[Gal(b1-3)]GalNAc
# How it was run: as §1
# [29] = target: Neu5Ac(a2-3)Gal(b1-4)GlcNAc(b1-3)Gal(b1-4)[Fuc(a1-3)]GlcNAc
# How it was run: as §1
# [30] = target: Neu5Ac(a2-3)Gal(b1-4)GlcNAc(b1-3)GalNAc
# How it was run: as §1
binder,measurement,setting,value
B1,glycan array binding signal (z-score),[1],0.954
same,glycan array binding signal (z-score),[2],0.003
same,glycan array binding signal (z-score),[3],0.279
same,glycan array binding signal (z-score),[4],-0.858
same,glycan array binding signal (z-score),[5],-1.04
same,glycan array binding signal (z-score),[6],0.576
same,glycan array binding signal (z-score),[7],-0.596
same,glycan array binding signal (z-score),[8],-0.782
same,glycan array binding signal (z-score),[9],-0.582
same,glycan array binding signal (z-score),[10],-0.519
same,glycan array binding signal (z-score),[11],0.711
same,glycan array binding signal (z-score),[12],-0.679
same,glycan array binding signal (z-score),[13],-0.868
same,glycan array binding signal (z-score),[14],-0.828
same,glycan array binding signal (z-score),[15],-0.842
same,glycan array binding signal (z-score),[16],-0.786
same,glycan array binding signal (z-score),[17],-0.745
same,glycan array binding signal (z-score),[18],-0.538
same,glycan array binding signal (z-score),[19],-0.583
same,glycan array binding signal (z-score),[20],0.033
same,glycan array binding signal (z-score),[21],-1.04
same,glycan array binding signal (z-score),[22],0.014
same,glycan array binding signal (z-score),[23],-0.03
same,glycan array binding signal (z-score),[24],-0.676
same,glycan array binding signal (z-score),[25],-0.742
same,glycan array binding signal (z-score),[26],-0.322
same,glycan array binding signal (z-score),[27],-0.709
same,glycan array binding signal (z-score),[28],0.288
same,glycan array binding signal (z-score),[29],-0.571
same,glycan array binding signal (z-score),[30],0.512

# Nothing new here: an excerpt of the list.
binder,measurement,setting,value
B1,glycan array binding signal (z-score),[17],-0.745
same,glycan array binding signal (z-score),[18],-0.538
